According to the supplement of paper PMC12067093, “Discovery and optimisation of a covalent ligand for TRIM25 and its application to targeted protein ubiquitination” (Chemical Science, 2025):
The other results are listed elsewhere or left out.

Chains of the proteins cited; added tags and fusions are not shown. Lines headed by an entry give the natural chain unless they say otherwise; changes in a name come on top.
UniProt P05771, whole entry, looked up: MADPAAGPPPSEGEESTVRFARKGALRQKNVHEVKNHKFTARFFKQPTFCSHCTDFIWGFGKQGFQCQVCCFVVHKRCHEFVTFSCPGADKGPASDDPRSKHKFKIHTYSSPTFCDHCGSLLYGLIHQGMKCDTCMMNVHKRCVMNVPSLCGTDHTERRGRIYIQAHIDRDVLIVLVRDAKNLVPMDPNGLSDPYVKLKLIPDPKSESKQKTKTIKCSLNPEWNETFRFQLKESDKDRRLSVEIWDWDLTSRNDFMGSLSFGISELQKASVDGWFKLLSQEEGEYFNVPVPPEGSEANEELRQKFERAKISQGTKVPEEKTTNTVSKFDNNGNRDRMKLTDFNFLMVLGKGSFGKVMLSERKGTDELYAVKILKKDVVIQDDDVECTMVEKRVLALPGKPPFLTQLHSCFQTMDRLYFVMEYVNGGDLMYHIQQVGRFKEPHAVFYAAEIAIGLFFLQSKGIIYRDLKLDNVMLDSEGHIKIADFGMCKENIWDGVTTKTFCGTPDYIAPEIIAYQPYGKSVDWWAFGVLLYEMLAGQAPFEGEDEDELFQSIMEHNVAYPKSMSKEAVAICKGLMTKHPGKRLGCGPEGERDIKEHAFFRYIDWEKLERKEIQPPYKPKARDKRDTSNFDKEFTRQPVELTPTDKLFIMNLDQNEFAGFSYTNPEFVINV
UniProt Q99873, whole entry, looked up: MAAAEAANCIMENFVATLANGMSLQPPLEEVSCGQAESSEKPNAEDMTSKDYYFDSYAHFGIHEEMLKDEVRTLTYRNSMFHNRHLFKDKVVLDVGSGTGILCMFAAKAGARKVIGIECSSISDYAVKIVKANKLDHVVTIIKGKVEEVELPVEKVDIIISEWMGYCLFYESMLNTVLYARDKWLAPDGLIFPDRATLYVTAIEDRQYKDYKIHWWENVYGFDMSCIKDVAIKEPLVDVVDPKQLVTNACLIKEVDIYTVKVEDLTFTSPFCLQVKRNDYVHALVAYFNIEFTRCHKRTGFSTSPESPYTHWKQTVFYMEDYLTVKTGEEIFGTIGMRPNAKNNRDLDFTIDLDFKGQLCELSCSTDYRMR
UniProt O94906: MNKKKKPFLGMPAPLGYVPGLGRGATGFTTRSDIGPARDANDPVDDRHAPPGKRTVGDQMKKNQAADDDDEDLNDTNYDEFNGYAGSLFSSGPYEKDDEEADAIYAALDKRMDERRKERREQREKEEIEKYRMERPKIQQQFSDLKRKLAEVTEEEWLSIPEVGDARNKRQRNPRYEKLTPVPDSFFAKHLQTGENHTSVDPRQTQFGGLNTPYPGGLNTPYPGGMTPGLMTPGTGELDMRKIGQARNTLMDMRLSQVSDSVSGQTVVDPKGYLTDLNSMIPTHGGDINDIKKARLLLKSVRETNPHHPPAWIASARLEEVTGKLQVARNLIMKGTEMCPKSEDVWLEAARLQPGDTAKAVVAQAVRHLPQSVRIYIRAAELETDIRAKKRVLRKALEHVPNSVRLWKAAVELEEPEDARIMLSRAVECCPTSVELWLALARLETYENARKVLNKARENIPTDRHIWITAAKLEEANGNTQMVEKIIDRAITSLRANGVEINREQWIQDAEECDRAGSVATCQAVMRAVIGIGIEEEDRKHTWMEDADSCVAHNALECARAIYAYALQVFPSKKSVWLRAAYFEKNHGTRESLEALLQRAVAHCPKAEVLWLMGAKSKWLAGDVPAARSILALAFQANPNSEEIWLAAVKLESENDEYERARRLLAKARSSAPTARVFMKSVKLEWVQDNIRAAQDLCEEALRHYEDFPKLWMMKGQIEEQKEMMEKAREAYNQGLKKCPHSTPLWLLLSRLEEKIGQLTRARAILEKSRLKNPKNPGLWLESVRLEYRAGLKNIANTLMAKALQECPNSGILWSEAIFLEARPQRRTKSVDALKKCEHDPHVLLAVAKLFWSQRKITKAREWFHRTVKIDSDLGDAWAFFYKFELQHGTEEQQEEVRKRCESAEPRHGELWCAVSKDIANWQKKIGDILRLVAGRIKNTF
UniProt O43395: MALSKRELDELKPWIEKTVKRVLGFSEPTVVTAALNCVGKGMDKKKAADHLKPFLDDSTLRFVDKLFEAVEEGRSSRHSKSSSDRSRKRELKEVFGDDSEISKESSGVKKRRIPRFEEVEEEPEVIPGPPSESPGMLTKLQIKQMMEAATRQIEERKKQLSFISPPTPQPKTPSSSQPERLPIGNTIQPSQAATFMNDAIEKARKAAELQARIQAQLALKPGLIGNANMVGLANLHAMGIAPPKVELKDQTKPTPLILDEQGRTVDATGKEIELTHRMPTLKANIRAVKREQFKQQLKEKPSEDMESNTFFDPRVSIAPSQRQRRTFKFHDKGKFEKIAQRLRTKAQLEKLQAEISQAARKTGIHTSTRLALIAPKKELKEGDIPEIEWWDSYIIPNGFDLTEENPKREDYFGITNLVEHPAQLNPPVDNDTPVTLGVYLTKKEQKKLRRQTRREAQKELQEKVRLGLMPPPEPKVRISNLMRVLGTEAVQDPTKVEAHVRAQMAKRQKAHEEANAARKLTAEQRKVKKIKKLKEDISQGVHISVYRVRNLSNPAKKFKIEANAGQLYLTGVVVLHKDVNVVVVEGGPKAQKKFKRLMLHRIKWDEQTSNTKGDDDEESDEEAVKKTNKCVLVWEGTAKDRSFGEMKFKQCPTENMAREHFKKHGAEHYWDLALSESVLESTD
UniProt P79522: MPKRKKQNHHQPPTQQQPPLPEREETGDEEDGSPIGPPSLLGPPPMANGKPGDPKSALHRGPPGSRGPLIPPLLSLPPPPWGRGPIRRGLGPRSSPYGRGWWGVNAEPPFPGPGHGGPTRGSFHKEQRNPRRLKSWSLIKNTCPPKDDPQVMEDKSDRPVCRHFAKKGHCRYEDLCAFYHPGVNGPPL
UniProt Q05655: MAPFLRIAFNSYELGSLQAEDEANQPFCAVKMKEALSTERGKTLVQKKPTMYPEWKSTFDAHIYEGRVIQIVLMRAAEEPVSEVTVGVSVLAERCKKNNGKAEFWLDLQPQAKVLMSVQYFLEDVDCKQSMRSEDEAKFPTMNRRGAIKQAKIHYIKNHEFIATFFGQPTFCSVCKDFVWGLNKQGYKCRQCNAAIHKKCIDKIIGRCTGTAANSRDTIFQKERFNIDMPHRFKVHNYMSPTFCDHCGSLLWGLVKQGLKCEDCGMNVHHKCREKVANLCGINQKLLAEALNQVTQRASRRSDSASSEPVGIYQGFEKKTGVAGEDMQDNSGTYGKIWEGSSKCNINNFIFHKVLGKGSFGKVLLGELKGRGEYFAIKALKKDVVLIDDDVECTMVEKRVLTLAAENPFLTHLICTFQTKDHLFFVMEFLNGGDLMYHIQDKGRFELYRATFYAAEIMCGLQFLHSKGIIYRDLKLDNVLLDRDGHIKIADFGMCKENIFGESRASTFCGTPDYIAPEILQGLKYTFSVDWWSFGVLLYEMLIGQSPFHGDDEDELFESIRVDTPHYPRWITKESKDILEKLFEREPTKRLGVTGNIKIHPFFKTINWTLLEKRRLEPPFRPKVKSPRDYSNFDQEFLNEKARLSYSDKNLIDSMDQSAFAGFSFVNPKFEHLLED
UniProt O43172: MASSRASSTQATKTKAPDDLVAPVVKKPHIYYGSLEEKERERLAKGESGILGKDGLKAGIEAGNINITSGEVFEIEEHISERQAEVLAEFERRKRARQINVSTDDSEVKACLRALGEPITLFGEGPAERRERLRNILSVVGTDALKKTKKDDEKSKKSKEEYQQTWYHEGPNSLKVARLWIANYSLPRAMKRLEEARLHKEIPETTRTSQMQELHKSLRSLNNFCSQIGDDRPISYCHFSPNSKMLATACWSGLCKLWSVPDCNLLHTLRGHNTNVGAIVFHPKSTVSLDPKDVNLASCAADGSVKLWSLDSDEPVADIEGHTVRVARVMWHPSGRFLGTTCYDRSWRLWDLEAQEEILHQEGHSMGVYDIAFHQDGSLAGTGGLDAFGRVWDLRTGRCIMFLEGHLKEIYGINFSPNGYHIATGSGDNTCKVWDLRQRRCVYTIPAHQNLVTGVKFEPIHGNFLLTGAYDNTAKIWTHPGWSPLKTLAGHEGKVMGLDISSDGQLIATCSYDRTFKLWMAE
UniProt Q9BZL6: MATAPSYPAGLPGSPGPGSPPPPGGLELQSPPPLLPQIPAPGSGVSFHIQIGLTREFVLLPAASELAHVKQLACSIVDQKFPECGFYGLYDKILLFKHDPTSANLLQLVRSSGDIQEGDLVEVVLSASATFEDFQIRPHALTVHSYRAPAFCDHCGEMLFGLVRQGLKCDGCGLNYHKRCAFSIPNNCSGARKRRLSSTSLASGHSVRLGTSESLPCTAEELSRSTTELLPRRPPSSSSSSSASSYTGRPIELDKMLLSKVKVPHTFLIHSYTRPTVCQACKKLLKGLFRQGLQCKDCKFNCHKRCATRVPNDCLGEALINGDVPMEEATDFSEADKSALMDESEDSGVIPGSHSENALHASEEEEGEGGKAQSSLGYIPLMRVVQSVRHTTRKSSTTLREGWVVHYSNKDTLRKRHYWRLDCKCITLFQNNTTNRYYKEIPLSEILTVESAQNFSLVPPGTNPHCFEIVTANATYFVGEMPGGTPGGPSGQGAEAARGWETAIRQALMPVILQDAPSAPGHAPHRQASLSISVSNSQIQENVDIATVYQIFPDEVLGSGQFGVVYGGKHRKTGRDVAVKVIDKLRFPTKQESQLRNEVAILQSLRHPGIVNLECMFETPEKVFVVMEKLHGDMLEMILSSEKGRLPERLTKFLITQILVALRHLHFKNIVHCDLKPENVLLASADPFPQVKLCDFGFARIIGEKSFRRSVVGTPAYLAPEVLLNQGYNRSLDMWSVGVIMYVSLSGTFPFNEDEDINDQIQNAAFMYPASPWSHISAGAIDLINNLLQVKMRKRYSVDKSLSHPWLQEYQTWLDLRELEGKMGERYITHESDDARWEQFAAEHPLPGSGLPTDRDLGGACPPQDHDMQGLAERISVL
UniProt Q04759: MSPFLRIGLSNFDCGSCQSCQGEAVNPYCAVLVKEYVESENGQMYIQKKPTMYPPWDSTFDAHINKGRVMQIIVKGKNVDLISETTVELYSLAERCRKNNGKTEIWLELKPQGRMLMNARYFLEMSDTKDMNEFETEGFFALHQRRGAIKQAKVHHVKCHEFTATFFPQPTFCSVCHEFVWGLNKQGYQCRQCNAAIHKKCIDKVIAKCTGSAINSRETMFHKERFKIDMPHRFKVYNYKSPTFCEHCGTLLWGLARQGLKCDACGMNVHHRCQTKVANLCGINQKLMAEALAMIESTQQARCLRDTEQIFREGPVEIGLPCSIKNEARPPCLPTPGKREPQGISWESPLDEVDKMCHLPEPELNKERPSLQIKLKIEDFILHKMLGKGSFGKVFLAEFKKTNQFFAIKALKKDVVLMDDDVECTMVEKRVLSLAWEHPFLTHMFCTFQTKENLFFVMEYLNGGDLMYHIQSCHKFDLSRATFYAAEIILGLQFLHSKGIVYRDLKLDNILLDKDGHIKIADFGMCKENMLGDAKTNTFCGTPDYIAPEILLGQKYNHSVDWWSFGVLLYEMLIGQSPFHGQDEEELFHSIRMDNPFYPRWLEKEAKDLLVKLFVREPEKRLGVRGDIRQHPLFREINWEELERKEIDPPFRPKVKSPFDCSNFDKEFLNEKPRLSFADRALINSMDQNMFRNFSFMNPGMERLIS
UniProt Q9NVM4: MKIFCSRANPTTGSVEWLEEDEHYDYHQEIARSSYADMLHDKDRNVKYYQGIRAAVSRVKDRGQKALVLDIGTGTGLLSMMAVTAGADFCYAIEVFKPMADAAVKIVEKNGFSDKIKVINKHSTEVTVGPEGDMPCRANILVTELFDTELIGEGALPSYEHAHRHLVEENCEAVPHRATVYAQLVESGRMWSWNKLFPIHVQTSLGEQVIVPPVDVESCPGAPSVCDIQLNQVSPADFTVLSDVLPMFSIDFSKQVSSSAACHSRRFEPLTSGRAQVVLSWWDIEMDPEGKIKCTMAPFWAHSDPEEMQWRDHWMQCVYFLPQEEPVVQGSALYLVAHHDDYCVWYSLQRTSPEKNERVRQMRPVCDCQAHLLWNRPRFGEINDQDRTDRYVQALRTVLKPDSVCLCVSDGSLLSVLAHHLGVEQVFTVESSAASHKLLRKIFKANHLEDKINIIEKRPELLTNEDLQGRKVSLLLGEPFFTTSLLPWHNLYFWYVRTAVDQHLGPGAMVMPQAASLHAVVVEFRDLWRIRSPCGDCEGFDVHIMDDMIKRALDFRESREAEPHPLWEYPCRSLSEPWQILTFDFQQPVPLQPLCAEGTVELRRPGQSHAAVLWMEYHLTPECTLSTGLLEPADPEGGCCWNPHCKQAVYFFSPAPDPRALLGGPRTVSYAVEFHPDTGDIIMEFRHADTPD
UniProt Q9Y478: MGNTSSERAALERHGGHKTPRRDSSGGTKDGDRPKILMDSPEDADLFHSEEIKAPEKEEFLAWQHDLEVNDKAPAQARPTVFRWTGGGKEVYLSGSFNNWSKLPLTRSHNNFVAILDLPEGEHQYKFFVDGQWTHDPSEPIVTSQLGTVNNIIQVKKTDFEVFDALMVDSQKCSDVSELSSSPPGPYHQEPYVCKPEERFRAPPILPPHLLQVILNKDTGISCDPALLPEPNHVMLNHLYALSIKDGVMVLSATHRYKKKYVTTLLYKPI

Compound: Cc1cc(ccc1-c1ccccc1)C(=O)N1CCCN(CC1)C(=O)CCl [compound 10]
Test: probe-labelled cysteine peptide fold change vs DMSO (competition) (log2 fold change); higher = less target engagement (more negative = stronger competition)
Conditions: THP-1, incubation time: 4 h
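Further: competitive profiling in live THP-1 cells: cysteine peptides tagged with an iodoacetamide desthiobiotin (IA-DTB) probe, intensity after compound treatment relative to DMSO-treated cells.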

| Target | probe-labelled cysteine peptide fold change (10 µM) | probe-labelled cysteine peptide fold change (50 µM) |
| --- | --- | --- |
| PRKCB_P05771_132_CDTCMMNVHKR (UniProt P05771) | 0.065 | -0.464 |
| PRMT1_Q99873_272_VEDLTFTSPFCLQVK (UniProt Q99873) | 0.24 | 0.272 |
| PRPF6_O94906_901_CESAEPR (UniProt O94906) | -0.146 | -0.033 |
| PRPF3_O43395_651_QCPTENMAR (UniProt O43395) | -0.161 | -0.0737 |
| PRKDC_P78527_3683_ECSPWMSDFKVEFLRNELEIPGQYDGR (UniProt P78527) | -0.553 | -0.67 |
| PRKCI_P41743_137_LYCANGHTFQAK (UniProt P41743) | -0.00179 | 0.0748 |
| PRMT1_Q99873_119_VIGIECSSISDYAVK (UniProt Q99873) | 0.0641 | 0.0335 |
| PRMT3_O60678_53_QQTPCLFCNR (UniProt O60678) | -0.0865 | 0.179 |
| PRKCB_P05771_143+151_CVMNVPSLCGTDHTER (UniProt P05771) | -0.0695 | 0.316 |
| PSD4_Q8NDX1_705_SMSCQEFITNLNGLR (UniProt Q8NDX1) | 0.0157 | -0.159 |
| PRR3_P79522_161_SDRPVCR (UniProt P79522) | 0.149 | -0.0851 |
| PRKCSH_P14314_39_GVSLTNHHFYDESKPFTCLDGSATIPFDQVNDDYCDCK (UniProt P14314) | -0.151 | -1.07 |
| PRKDC_P78527_1499+1507_QCLPSLDLSCK (UniProt P78527) | 0.0692 | -0.469 |
| PRPF6_O94906_837_CEHDPHVLLAVAK (UniProt O94906) | -0.198 | -0.0758 |
| PRKRA_O75569_54_NIPVYECER (UniProt O75569) | -0.0806 | -0.191 |
| PRKAR1A_P10644_39_DSIVQLCTARPERPMAFLR (UniProt P10644) | -0.0353 | -0.242 |
| PRKCSH_P14314_471_YEQGTGCWQGPNR (UniProt P14314) | -0.163 | 0.0165 |
| PRKDC_P78527_1742_FNNYVDCMKK (UniProt P78527) | -0.121 | -0.562 |
| PRKDC_P78527_232_GLSSLLCNFTK (UniProt P78527) | -0.254 | 0.0468 |
| PRKDC_P78527_491_ICSKPVVLPK (UniProt P78527) | -0.0652 | -0.0574 |
| PRPF6_O94906_430_AVECCPTSVELWLALAR (UniProt O94906) | -0.109 | 0.239 |

Reprinted from above for reference:

| Target | probe-labelled cysteine peptide fold change (10 µM) | probe-labelled cysteine peptide fold change (50 µM) |
| --- | --- | --- |
| PRKCB_P05771_132_CDTCMMNVHKR (UniProt P05771) | 0.065 | -0.464 |
| PRMT1_Q99873_272_VEDLTFTSPFCLQVK (UniProt Q99873) | 0.24 | 0.272 |
| PRPF6_O94906_901_CESAEPR (UniProt O94906) | -0.146 | -0.033 |
| PRPF3_O43395_651_QCPTENMAR (UniProt O43395) | -0.161 | -0.0737 |
| PRKDC_P78527_3683_ECSPWMSDFKVEFLRNELEIPGQYDGR (UniProt P78527) | -0.553 | -0.67 |
| PRKCI_P41743_137_LYCANGHTFQAK (UniProt P41743) | -0.00179 | 0.0748 |
| PRMT1_Q99873_119_VIGIECSSISDYAVK (UniProt Q99873) | 0.0641 | 0.0335 |
| PRMT3_O60678_53_QQTPCLFCNR (UniProt O60678) | -0.0865 | 0.179 |
| PRKCB_P05771_143+151_CVMNVPSLCGTDHTER (UniProt P05771) | -0.0695 | 0.316 |
| PSD4_Q8NDX1_705_SMSCQEFITNLNGLR (UniProt Q8NDX1) | 0.0157 | -0.159 |
| PRR3_P79522_161_SDRPVCR (UniProt P79522) | 0.149 | -0.0851 |
| PRKCSH_P14314_39_GVSLTNHHFYDESKPFTCLDGSATIPFDQVNDDYCDCK (UniProt P14314) | -0.151 | -1.07 |
| PRKDC_P78527_1499+1507_QCLPSLDLSCK (UniProt P78527) | 0.0692 | -0.469 |
| PRPF6_O94906_837_CEHDPHVLLAVAK (UniProt O94906) | -0.198 | -0.0758 |
| PRKRA_O75569_54_NIPVYECER (UniProt O75569) | -0.0806 | -0.191 |
| PRKAR1A_P10644_39_DSIVQLCTARPERPMAFLR (UniProt P10644) | -0.0353 | -0.242 |
| PRKCSH_P14314_471_YEQGTGCWQGPNR (UniProt P14314) | -0.163 | 0.0165 |
| PRKDC_P78527_1742_FNNYVDCMKK (UniProt P78527) | -0.121 | -0.562 |
| PRKDC_P78527_232_GLSSLLCNFTK (UniProt P78527) | -0.254 | 0.0468 |
| PRKDC_P78527_491_ICSKPVVLPK (UniProt P78527) | -0.0652 | -0.0574 |

The list goes on.

| Target | probe-labelled cysteine peptide fold change (10 µM) | probe-labelled cysteine peptide fold change (50 µM) |
| --- | --- | --- |
| PROSER1_Q86XN7_139_APHAMISSCGTIPGNPYPK (UniProt Q86XN7) | -0.221 | -0.552 |
| PRKCD_Q05655_393_DVVLIDDDVECTMVEK (UniProt Q05655) | -0.33 | 0.0519 |
| PRPF6_O94906_807_ALQECPNSGILWSEAIFLEAR (UniProt O94906) | 0.317 | 0.0886 |
| PRPF38B_Q5VTL8_113_TAGQTGMCGGVR (UniProt Q5VTL8) | -0.121 | -0.672 |
| PRKCA_P17252_143+151_QCVINVPSLCGMDHTEKR (UniProt P17252) | -0.112 | -0.599 |
| PRSS12_P56730_349_CTGNELSIEQCPK (UniProt P56730) | -0.104 | 0.148 |
| PRPF4_O43172_263_LWSVPDCNLLHTLR (UniProt O43172) | 0.0669 | 0.105 |
| PRPS2_P11908_226+230_VAILVDDMADTCGTICHAADK (UniProt P11908) | 0.31 | -0.412 |
| PSIP1_O75475_204_QPCPSESDIITEEDK (UniProt O75475) | -0.125 | -1.03 |
| PRKDC_P78527_1364_KDLCNTHLMR (UniProt P78527) | -0.0343 | -0.343 |
| PRKD2_Q9BZL6_217_LGTSESLPCTAEELSR (UniProt Q9BZL6) | -0.106 | -0.386 |
| PRPF19_Q9UMS4_355_VTDETSGCSLTCAQFHPDGLIFGTGTMDSQIK (UniProt Q9UMS4) | 0.114 | -0.223 |
| PRKAR1A_P10644_362_VLGPCSDILKR (UniProt P10644) | -0.21 | -0.196 |
| PRMT3_O60678_363_GGSVYPDICTISLVAVSDVNK (UniProt O60678) | 0.4 | 0.31 |
| PRPF39_Q86UA1_413_ACTIHLPK (UniProt Q86UA1) | 0.0143 | 0.109 |
| PRKCQ_Q04759_193_QCNAAIHKK (UniProt Q04759) | -0.575 | -0.964 |
| PRPF4_O43172_441_CVYTIPAHQNLVTGVK (UniProt O43172) | 0.171 | 0.12 |
| PRPF19_Q9UMS4_230_QVASHVGLHSASIPGILALDLCPSDTNK (UniProt Q9UMS4) | -0.0812 | -0.0167 |
| PRPF19_Q9UMS4_16_SLICSISNEVPEHPCVSPVSNHVYER (UniProt Q9UMS4) | 0.241 | 0.301 |
| PRKCSH_P14314_77_DGSDEPGTAACPNGSFHCTNTGYK (UniProt P14314) | 0.189 | 0.422 |
| PRKAA1_Q13131_313+321_FECSEEEVLSCLYNR (UniProt Q13131) | -0.0579 | -0.25 |

| Target | probe-labelled cysteine peptide fold change (10 µM) | probe-labelled cysteine peptide fold change (50 µM) |
| --- | --- | --- |
| PRKRA_O75569_106_ANASICFAVPDPLMPDPSK (UniProt O75569) | -0.119 | -0.533 |
| PRUNE1_Q86TP1_303+313_QLAIFCPHVALQTTICEVLER (UniProt Q86TP1) | -0.0796 | -0.0166 |
| PRMT7_Q9NVM4_571_EAEPHPLWEYPCR (UniProt Q9NVM4) | -0.0578 | -0.261 |
| PRMT5_O14744_518_LHNFHQLSAPQPCFTFSHPNR (UniProt O14744) | -0.036 | 0.18 |
| PRKDC_P78527_1176+1183_WLLAHCGRPQTECR (UniProt P78527) | -0.397 | 0.166 |
| PRMT7_Q9NVM4_136_HSTEVTVGPEGDMPCR (UniProt Q9NVM4) | -0.288 | -0.257 |
| PRKDC_P78527_2363_FIVCLNK (UniProt P78527) | 0.0215 | -0.0417 |
| PRPS2_P11908_230_VAILVDDMADTCGTICHAADK (UniProt P11908) | 0.358 | -0.372 |
| PRKDC_P78527_1399_VLVQTLCEPASIGFNIGDVQVMAHLPDVCVNLMK (UniProt P78527) | 0.144 | 0.164 |
| PRPF6_O94906_550+558_HTWMEDADSCVAHNALECAR (UniProt O94906) | 0.0857 | -0.191 |
| PRRC2A_P48634_437_GGPPCKPPAPEDEDEAWR (UniProt P48634) | -0.229 | -0.295 |
| PRPF4B_Q13523_962_DLLADLIGCQR (UniProt Q13523) | -0.126 | -0.222 |
| PRKD2_Q9BZL6_188_CAFSIPNNCSGAR (UniProt Q9BZL6) | -0.312 | -0.0796 |
| PRMT9_Q6P2P2_683_CLLQSGGK (UniProt Q6P2P2) | 0.066 | 0.0126 |
| PRKCB_P05771_143_CVMNVPSLCGTDHTER (UniProt P05771) | -0.00167 | -0.0823 |
| PRKAR1B_P31321_18_GCELYVQLHGIQQVLK (UniProt P31321) | -0.326 | -0.34 |
| PRKDC_P78527_478_NCISTVVHQGLIR (UniProt P78527) | 0.0635 | 0.213 |
| PRKCQ_Q04759_193_QCNAAIHK (UniProt Q04759) | -0.474 | -0.576 |
| PRPF19_Q9UMS4_114_QELSHALYQHDAACR (UniProt Q9UMS4) | 0.0823 | 0.15 |
| PRPS1_P60891_41_FSNQETCVEIGESVR (UniProt P60891) | 0.0317 | 0.195 |
| PRKRA_O75569_213_FSNISPENHISLTNVVGHSLGCTWHSLR (UniProt O75569) | -0.0469 | -0.293 |

| Target | probe-labelled cysteine peptide fold change (10 µM) | probe-labelled cysteine peptide fold change (50 µM) |
| --- | --- | --- |
| PRIM1_P49642_354_VDQFDPFTVPTISFICR (UniProt P49642) | 0.0272 | 0.199 |
| PRMT3_O60678_264_VVLDVGCGTGILSMFAAK (UniProt O60678) | 0.0608 | 0.0054 |
| PRMT9_Q6P2P2_290_GESANCEK (UniProt Q6P2P2) | -0.112 | -0.0837 |
| PRKCB_P05771_586_LGCGPEGER (UniProt P05771) | -0.194 | 0.102 |
| PRKCB_P05771_409_VLALPGKPPFLTQLHSCFQTMDR (UniProt P05771) | -0.0204 | 0.372 |
| PRKAA1_Q13131_141_LFQQILSGVDYCHR (UniProt Q13131) | 0.125 | 0.266 |
| PRKRA_O75569_163_EYTTICR (UniProt O75569) | 0.145 | -0.169 |
| PRKD2_Q9BZL6_169_CDGCGLNYHK (UniProt Q9BZL6) | -0.0725 | 0.00149 |
| PRKCA_P17252_406_VLALLDKPPFLTQLHSCFQTVDR (UniProt P17252) | 0.213 | 0.544 |
| PRKDC_P78527_3837_APPCEYK (UniProt P78527) | -0.155 | -0.0934 |
| PRPF3_O43395_630_CVLVWEGTAK (UniProt O43395) | -0.0988 | -0.177 |
| PRPS2_P11908_226_VAILVDDMADTCGTICHAADK (UniProt P11908) | 0.26 | -0.25 |
| PRKDC_P78527_90_FLCIFLEK (UniProt P78527) | -0.272 | 0.234 |
| PRMT5_O14744_42_QGFDFLCMPVFHPR (UniProt O14744) | 0.0447 | -0.0675 |
| PRPF8_Q6P2Q9_2216+2223_TIIITCSFTPGSCTLTAYK (UniProt Q6P2Q9) | -0.0838 | -0.0595 |
| PRPF8_Q6P2Q9_2116_KFICISDLR (UniProt Q6P2Q9) | 0.0139 | 0.129 |
| PRMT5_O14744_22_DLNCVPEIADTLGAVAK (UniProt O14744) | -0.0753 | 0.0621 |
| PRUNE1_Q86TP1_303_QLAIFCPHVALQTTICEVLER (UniProt Q86TP1) | -0.0186 | -0.0629 |
| PRKCD_Q05655_261+264_CEDCGMNVHHK (UniProt Q05655) | -0.702 | -1.69 |
| PRKCQ_Q04759_281_VANLCGINQK (UniProt Q04759) | -0.607 | -0.997 |
| PRKAB1_Q9Y478_223_DTGISCDPALLPEPNHVMLNHLYALSIK (UniProt Q9Y478) | -0.447 | -0.409 |
